In doi:10.1101/2021.04.29.441934 one finds binding data, which are given here for four molecules.

Protein sequences, listed by entry. Tags and fused reporters are not part of them.
UniProt Q96524: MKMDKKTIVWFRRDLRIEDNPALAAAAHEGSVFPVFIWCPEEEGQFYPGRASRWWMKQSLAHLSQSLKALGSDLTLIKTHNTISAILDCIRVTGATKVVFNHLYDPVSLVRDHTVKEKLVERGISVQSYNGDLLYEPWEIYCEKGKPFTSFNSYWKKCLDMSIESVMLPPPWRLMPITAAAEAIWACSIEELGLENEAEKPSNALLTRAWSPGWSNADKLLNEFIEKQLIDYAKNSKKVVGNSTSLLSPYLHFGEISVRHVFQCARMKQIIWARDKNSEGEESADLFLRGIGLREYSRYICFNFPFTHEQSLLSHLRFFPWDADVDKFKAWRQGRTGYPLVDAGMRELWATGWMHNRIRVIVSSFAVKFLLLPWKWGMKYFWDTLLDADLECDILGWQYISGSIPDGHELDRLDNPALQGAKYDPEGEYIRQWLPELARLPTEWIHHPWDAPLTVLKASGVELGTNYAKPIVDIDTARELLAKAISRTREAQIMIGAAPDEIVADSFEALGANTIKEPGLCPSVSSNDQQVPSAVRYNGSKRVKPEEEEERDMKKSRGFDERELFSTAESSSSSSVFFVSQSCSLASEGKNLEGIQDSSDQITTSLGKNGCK
UniProt Q43125: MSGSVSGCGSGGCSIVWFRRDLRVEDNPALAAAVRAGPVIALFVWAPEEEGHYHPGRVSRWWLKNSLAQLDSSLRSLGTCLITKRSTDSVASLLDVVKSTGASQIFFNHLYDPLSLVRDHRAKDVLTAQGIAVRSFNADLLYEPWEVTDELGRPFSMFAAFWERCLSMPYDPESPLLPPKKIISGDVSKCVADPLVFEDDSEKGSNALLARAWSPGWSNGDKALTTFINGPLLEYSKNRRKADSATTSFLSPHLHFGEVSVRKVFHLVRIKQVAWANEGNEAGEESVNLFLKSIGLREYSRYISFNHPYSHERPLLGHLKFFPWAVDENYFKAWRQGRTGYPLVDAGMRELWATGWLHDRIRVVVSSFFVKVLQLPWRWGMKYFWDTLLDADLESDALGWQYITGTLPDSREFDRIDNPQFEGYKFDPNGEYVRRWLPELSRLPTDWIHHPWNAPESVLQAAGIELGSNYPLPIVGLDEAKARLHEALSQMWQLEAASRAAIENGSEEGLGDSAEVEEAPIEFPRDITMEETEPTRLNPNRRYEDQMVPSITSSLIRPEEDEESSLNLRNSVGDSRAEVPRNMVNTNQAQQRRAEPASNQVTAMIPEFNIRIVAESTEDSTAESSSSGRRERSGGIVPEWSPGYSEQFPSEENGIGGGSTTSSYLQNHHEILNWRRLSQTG

No constants are given. Whether binding was seen depends on the method and setting. Binding seen in cells or lysates may run through a third protein. These calls come from enrichment with a bait or labelling near it, and not all partners need be listed.

Sequences and labels used below:
B1: ubiquitin-specific protease 12 (UBP12), endogenous (enzyme, UniProt Q9FPT1 1-1116)
chain: MTMMTPPPVDQPEDEEMLVPNSDLVDGPAQPMEVTQPETAASTVENQPAEDPPTLKFTWTIPNFSRQNTRKHYSDVFVVGGYKWRILIFPKGNNVDHLSMYLDVSDAASLPYGWSRYAQFSLAVVNQIHTRYTVRKETQHQFNARESDWGFTSFMPLSELYDPSRGYLVNDTVLVEAEVAVRKVLDYWSYDSKKETGFVGLKNQGATCYMNSLLQTLYHIPYFRKAVYHMPTTENDAPTASIPLALQSLFYKLQYNDTSVATKELTKSFGWDTYDSFMQHDVQELNRVLCEKLEDKMKGTVVEGTIQQLFEGHHMNYIECINVDFKSTRKESFYDLQLDVKGCKDVYASFDKYVEVERLEGDNKYHAEGHGLQDAKKGVLFIDFPPVLQLQLKRFEYDFMRDTMVKINDRYEFPLELDLDREDGKYLSPDADRSVRNLYTLHSVLVHSGGVHGGHYYAFIRPTLSDQWYKFDDERVTKEDLKRALEEQYGGEEELPQTNPGFNNNPPFKFTKYSNAYMLVYIRESDKDKIICNVDEKDIAEHLRVRLKKEQEEKEDKRRYKAQAHLYTIIKVARDEDLKEQIGKDIYFDLVDHDKVRSFRIQKQTPFQQFKEEVAKEFGVPVQLQRFWIWAKRQNHTYRPNRPLTPQEELQPVGQIREASNKANTAELKLFLEVEHLDLRPIPPPEKSKEDILLFFKLYDPEKAVLSYAGRLMVKSSSKPMDITGKLNEMVGFAPDEEIELFEEIKFEPCVMCEHLDKKTSFRLCQIEDGDIICFQKPLVNKEIECLYPAVPSFLEYVQNRQLVRFRALEKPKEDEFVLELSKQHTYDDVVEKVAEKLGLDDPSKLRLTSHNCYSQQPKPQPIKYRGVDHLSDMLVHYNQTSDILYYEVLDIPLPELQGLKTLKVAFHHATKEEVVIHNIRLPKQSTVGDVINELKTKVELSHPDAELRLLEVFYHKIYKIFPSTERIENINDQYWTLRAEEIPEEEKNIGPNDRLILVYHFAKETGQNQQVQNFGEPFFLVIHEGETLEEIKNRIQKKLHVSDEDFAKWKFAFMSMGRPEYLQDTDVVYNRFQRRDVYGAFEQYLGLEHADTTPKRAYAANQNRHAYEKPVKIYN
B2: ubiquitin-specific protease 13 (UBP13), endogenous (enzyme, UniProt Q84WU2 1-1115)
chain: MTMMTPPPLDQQEDEEMLVPNPDLVEGPQPMEVAQTDPAATAVENPPPEDPPSLKFTWTIPMFTRLNTRKHYSDVFVVGGYKWRILIFPKGNNVDHLSMYLDVADAANLPYGWSRYSQFSLAVVNQVNNRYSIRKETQHQFNARESDWGFTSFMPLSELYEPTRGYLVNDTVLIEAEVAVRKVLDYWSYDSKKETGFVGLKNQGATCYMNSLLQTLYHIPYFRKAVYHMPTTENDAPTASIPLALQSLFYKLQYNDTSVATKELTKSFGWDTYDSFMQHDVQELNRVLCEKLEDKMKGTVVEGTIQKLFEGHHMNYIECINVDYKSTRKESFYDLQLDVKGCKDVYASFDKYVEVERLEGDNKYHAEGHDLQDAKKGVLFIDFPPVLQLQLKRFEYDFMRDTMVKINDRYEFPLQLDLDREDGRYLSPDADKSVRNLYTLHSVLVHSGGVHGGHYYAFIRPTLSDQWYKFDDERVTKEDVKRALEEQYGGEEELPQNNPGFNNPPFKFTKYSNAYMLVYIRESDKDKIICNVDEKDIAEHLRVRLKKEQEEKEDKRKYKAQAHLFTTIKVARDDDITEQIGKNIYFDLVDHEKVRSFRIQKQTPFQQFKEEVAKEFGVPVQLQRFWIWAKRQNHTYRPNRPLSPNEELQTVGQIREASNKANNAELKLFLEIERGPDDLPIPPPEKTSEDILLFFKLYDPENAVLRYVGRLMVKSSSKPMDIVGQLNKMAGFAPDEEIELFEEIKFEPCVMCEQIDKKTSFRLCQIEDGDIICYQKPLSIEESEFRYPDVPSFLEYVQNRELVRFRTLEKPKEDEFTMELSKLHTYDDVVERVAEKLGLDDPSKLRLTSHNCYSQQPKPQPIKYRGVDHLSDMLVHYNQTSDILYYEVLDIPLPELQGLKTLKVAFHSATKDEVIIHNIRLPKQSTVGDVINELKTKVELSHQDAELRLLEVFFHKIYKIFPSTERIENINDQYWTLRAEEIPEEEKNIGPNDRLIHVYHFTKEAGQNQQVQNFGEPFFLVIHEGETLEEIKTRIQKKLHVPDEDFAKWKFASFSMGRPDYLLDTDVVYNRFQRRDVYGAWEQYLGLEHIDNAPKRAYAANQNRHAYEKPVKIYN
B3: BIC1 (Blue-light Inhibitor of Cryptochromes 1), endogenous (protein, UniProt Q9LXJ1 1-140)
chain: MMNIDDTTSPMAHPIGPSQPPSDQTKQDPPSLPQEAASSVSADKKDLALLEEKPKQSQEEDRVDTGRERLKKHRREIAGRVWIPEIWGQEELLKDWIDCSTFDTCLVPAGISSARTALVEEARRAASASGGLHNRCLILR

The target of this test is 9×Myc-6×His-3×Flag-CRY2 (Arabidopsis thaliana) (UniProt Q96524). Put plainly: affinity purification with mass spectrometry.
With “CRY1 (cryptochrome 1), endogenous (from UniProt Q43125 1-681) (receptor)”, the binding result is on record as “binds”.
As to B1, the binding entry is “binds”.
The value for B2 was “binds”; that for B3 was “binds”.
